# The other results are listed elsewhere or left out.
# B1: SRS6 (Toxoplasma gondii), Q9NH12 (protein)
# chain: MARTGSMQQRRGGFQTTARMLMAVCVSGVLLLSSGPSSANKLTEGQQNQNSGPGAATQEGPTIEGAVAKCVLKTTAAENGSSRAKNTTGLTLSKENLVVSLQCSGEKNAIVPKDQKKVCSAAPNAKVADCKGADTDKQVTLKSLLGTSGDIQWEKTIVSTDNKGEVMTLKIKESELPLFDKAFFVGCEEDKAQTRTSQATECKVNVSVKARPSTVGENNVVTCAYGKDSNPRPLEVEMSADNDTLTIDCGTDGSLKPTKYTEEFCVTDNSQLESCTTKKFSEILPTFLPSWWVSDSQNGSAKLTIPESGFPEEQQQFRLGCVPKKTTQSPQANPSVKTEKEEGAQNTDASTSNCSVIVTVKASNFSSLASSIAPTAAVAGGAAALTGFLVGSF
# Experiments:
# Assay in all cases: glycan array binding signal (z-score within array); higher = stronger binding
# Details in all cases: glycan notation: IUPAC condensed, linker removed
# Fuc(a1-2)[Gal(a1-3)]Gal = target: Fuc(a1-2)[Gal(a1-3)]Gal
# Outline: (§1)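 Columns mapping to the same glycan were averaged after glycan names were converted to IUPAC-condensed notation. The data come from 3228 arrays in the Consortium for Functional Glycomics database, limited to those with an available protein sequence. Binding is reported as a within-array Z-score averaged across arrays of one protein sequence and across linkers.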
# [1] = target: Fuc(a1-2)[Gal(a1-3)]Gal(b1-3)GlcNAc
# Outline: as §1
# [2] = target: Fuc(a1-2)[Gal(a1-3)]Gal(b1-3)GlcNAc(b1-2)Man(a1-3)[Fuc(a1-2)[Gal(a1-3)]Gal(b1-3)GlcNAc(b1-2)Man(a1-6)]Man(b1-4)GlcNAc(b1-4)GlcNAc
# Outline: as §1
# [3] = target: Fuc(a1-2)[Gal(a1-3)]Gal(b1-4)Glc
# Outline: as §1
# [4] = target: Fuc(a1-2)[Gal(a1-3)]Gal(b1-4)GlcNAc
# Outline: as §1
# [5] = target: Fuc(a1-2)[Gal(a1-3)]Gal(b1-4)GlcNAc(b1-2)Man(a1-3)[Fuc(a1-2)[Gal(a1-3)]Gal(b1-4)GlcNAc(b1-2)Man(a1-6)]Man(b1-4)GlcNAc(b1-4)GlcNAc
# Outline: as §1
# [6] = target: Fuc(a1-2)[Gal(a1-3)]Gal(b1-4)[Fuc(a1-3)]GlcNAc
# Outline: as §1
# [7] = target: Fuc(a1-2)[Gal(a1-4)]Gal(b1-4)GlcNAc
# Outline: as §1
# [8] = target: Fuc(a1-2)[GalNAc(a1-3)]Gal
# Outline: as §1
# [9] = target: Fuc(a1-2)[GalNAc(a1-3)]Gal(b1-3)GalNAc(a1-3)[Fuc(a1-2)]Gal(b1-4)GlcNAc
# Outline: as §1
# [10] = target: Fuc(a1-2)[GalNAc(a1-3)]Gal(b1-3)GlcNAc
# Outline: as §1
# [11] = target: Fuc(a1-2)[GalNAc(a1-3)]Gal(b1-3)GlcNAc(b1-2)Man(a1-3)[Fuc(a1-2)[GalNAc(a1-3)]Gal(b1-3)GlcNAc(b1-2)Man(a1-6)]Man(b1-4)GlcNAc(b1-4)GlcNAc
# Outline: as §1
# [12] = target: Fuc(a1-2)[GalNAc(a1-3)]Gal(b1-4)Glc
# Outline: as §1
# [13] = target: Fuc(a1-2)[GalNAc(a1-3)]Gal(b1-4)GlcNAc
# Outline: as §1
# [14] = target: Fuc(a1-2)[GalNAc(a1-3)]Gal(b1-4)GlcNAc(b1-2)Man(a1-3)[Fuc(a1-2)[GalNAc(a1-3)]Gal(b1-4)GlcNAc(b1-2)Man(a1-6)]Man(b1-4)GlcNAc(b1-4)GlcNAc
# Outline: as §1
# [15] = target: Fuc(a1-2)[GalNAc(a1-3)]Gal(b1-4)GlcNAc(b1-3)Gal(b1-4)GlcNAc
# Outline: as §1
# [16] = target: Fuc(a1-2)[GalNAc(a1-3)]Gal(b1-4)GlcNAc(b1-3)Gal(b1-4)GlcNAc(b1-3)Gal(b1-4)GlcNAc
# Outline: as §1
# [17] = target: Fuc(a1-2)[GalNAc(a1-3)]Gal(b1-4)[Fuc(a1-3)]GlcNAc
# Outline: as §1
# [18] = target: Fuc(a1-2)[GalNAc(a1-4)]Gal(b1-4)GlcNAc
# Outline: as §1
# [19] = target: Fuc(a1-2)[GalNAc(b1-3)]Gal
# Outline: as §1
# Fuc(a1-3)GlcNAc = target: Fuc(a1-3)GlcNAc
# Outline: as §1
# [20] = target: Fuc(a1-3)[Gal(b1-4)]Glc6S
# Outline: as §1
# [21] = target: Fuc(a1-3)[Gal(b1-4)]GlcNAc
# Outline: as §1
# [22] = target: Fuc(a1-3)[Gal(b1-4)]GlcNAc(b1-2)Man(a1-3)[Fuc(a1-3)[Gal(b1-4)]GlcNAc(b1-2)Man(a1-6)]Man(b1-4)GlcNAc(b1-4)GlcNAc
# Outline: as §1
# [23] = target: Fuc(a1-3)[Gal(b1-4)]GlcNAc(b1-3)Gal(b1-3)[Fuc(a1-4)]GlcNAc
# Outline: as §1
# [24] = target: Fuc(a1-3)[Gal(b1-4)]GlcNAc(b1-3)GalNAc
# Outline: as §1
# [25] = target: Fuc(a1-3)[Gal(b1-4)]GlcNAc(b1-4)Gal(b1-4)[Fuc(a1-3)]GlcNAc
# Outline: as §1
# [26] = target: Fuc(a1-3)[Gal(b1-4)]GlcNAc(b1-4)Gal(b1-4)[Fuc(a1-3)]GlcNAc(b1-4)Gal(b1-4)[Fuc(a1-3)]GlcNAc
# Outline: as §1
# [27] = target: Fuc(a1-3)[Gal(b1-4)]GlcNAc(b1-6)[Gal(b1-3)GlcNAc(b1-3)]Gal(b1-4)Glc
# Outline: as §1
# [28] = target: Fuc(a1-3)[Gal(b1-4)]GlcNAc6S
# Outline: as §1
binder,measurement,setting,value
B1,glycan array binding signal (z-score),Fuc(a1-2)[Gal(a1-3)]Gal,-0.077
same,glycan array binding signal (z-score),[1],-0.411
same,glycan array binding signal (z-score),[2],-0.263
same,glycan array binding signal (z-score),[3],-0.753
same,glycan array binding signal (z-score),[4],-0.624
same,glycan array binding signal (z-score),[5],0.219
same,glycan array binding signal (z-score),[6],0.039
same,glycan array binding signal (z-score),[7],-0.08
same,glycan array binding signal (z-score),[8],-0.123
same,glycan array binding signal (z-score),[9],-0.633
same,glycan array binding signal (z-score),[10],-0.195
same,glycan array binding signal (z-score),[11],-0.377
same,glycan array binding signal (z-score),[12],-0.184
same,glycan array binding signal (z-score),[13],-0.237
same,glycan array binding signal (z-score),[14],0.609
same,glycan array binding signal (z-score),[15],0.238
same,glycan array binding signal (z-score),[16],-0.105
same,glycan array binding signal (z-score),[17],0.175
same,glycan array binding signal (z-score),[18],-0.676
same,glycan array binding signal (z-score),[19],0.58
same,glycan array binding signal (z-score),Fuc(a1-3)GlcNAc,0.492
same,glycan array binding signal (z-score),[20],0.505
same,glycan array binding signal (z-score),[21],-0.325
same,glycan array binding signal (z-score),[22],1.58
same,glycan array binding signal (z-score),[23],0.049
same,glycan array binding signal (z-score),[24],-0.397
same,glycan array binding signal (z-score),[25],-0.045
same,glycan array binding signal (z-score),[26],-0.089
same,glycan array binding signal (z-score),[27],-0.373
same,glycan array binding signal (z-score),[28],0.259

# 2 neighbouring records from above, for reference:
binder,measurement,setting,value
B1,glycan array binding signal (z-score),[1],-0.411
same,glycan array binding signal (z-score),[2],-0.263
